Measurements reported in PubChem BioAssay AID652243 (Drosophila RNAi Screening Center, 2013).
The deposit covers about 24,000 reagents; shown is an unselected part of those with a known target gene and a result. Over the whole deposit, 246 (1%) were called active. 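Plates not normalised; calls are printed but the firefly/Renilla ratio behind them is not deposited; fold cut for lowering reported inconsistently.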 Raw values vary from plate to plate and are shown uncorrected. Not stated in the record: the amount of reagent.

Aim: 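Fly genes required for human androgen receptor driven transcription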 (primary screen)
Cells: Drosophila S2R+ cells
Reagent: long dsRNA against Drosophila genes
Time to read-out: 72 h (48 h, then 24 h hormone)
Treatment: synthetic androgen R1881 at 10 nM for 24 h
Measured: 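Firefly light from an androgen-responsive reporter and Renilla control light per well, raw and unnormalised, for each of two replicates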
Reading the numbers: firefly reporter light: higher = more light from androgen-responsive reporter; Renilla control light: higher = more constitutive control signal (cell number, transfection)
Hit rule: 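Across duplicate plates, a knock-down whose log firefly/Renilla ratio shifted a set fold down or up from the GFP/LacZ control mean was a hit; the downward cut appears as both 1.5 and 3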
Calls: active = hit: reporter lowered or raised; inactive = no hit

| Gene | DRSC id | firefly reporter light, replicate 1 | firefly reporter light, replicate 2 | Renilla control light, replicate 1 | Renilla control light, replicate 2 | activity call |
| --- | --- | --- | --- | --- | --- | --- |
| CG6996 | DRSC10758 | 2.46e5 | 1.93e5 | 2.58e6 | 2.67e6 | inactive |
| CG1620 | DRSC06603 | 1.46e6 | 1.25e6 | 2.62e6 | 2.61e6 | inactive |
| CG1620 | DRSC29378 | 2.73e5 | 2.70e5 | 1.01e6 | 1.01e6 | inactive |
| mEFTu2 | DRSC06163 | 9.25e5 | 5.94e5 | 2.80e6 | 2.51e6 | inactive |
| nclb | DRSC07009 | 1.24e5 | 1.54e5 | 1.23e6 | 1.06e6 | inactive |
| sing | DRSC19530 | 6.01e5 | 6.49e5 | 2.89e6 | 2.91e6 | inactive |
| Pepck2 | DRSC06013 | 62817 | 88690 | 1.52e6 | 1.88e6 | active |
| Pepck2 | DRSC26167 | 3.02e5 | 2.59e5 | 8.34e5 | 6.87e5 | inactive |
| mRpL24 | DRSC03113 | 6.44e5 | 8.59e5 | 1.33e6 | 1.80e6 | inactive |
| CG13445 | DRSC09992 | 4.18e5 | 3.22e5 | 1.97e6 | 2.01e6 | inactive |
| CG13445 | DRSC25076 | 9.61e5 | 7.65e5 | 1.17e6 | 1.16e6 | inactive |
| CG6280 | DRSC06972 | 67093 | 44693 | 9.04e5 | 9.04e5 | inactive |
| CG32647 | DRSC19690 | 5.83e5 | 3.73e5 | 4.72e6 | 3.36e6 | inactive |
| CG32647 | DRSC19878 | 4.27e5 | 3.41e5 | 2.63e6 | 1.78e6 | inactive |
| CG2915 | DRSC06842 | 1.32e6 | 1.36e6 | 1.85e6 | 2.15e6 | inactive |
| htt | DRSC16970 | 1.73e5 | 1.59e5 | 1.62e6 | 1.69e6 | inactive |
| CG46491 | DRSC06565 | 6.78e5 | 5.13e5 | 5.28e5 | 3.94e5 | inactive |
| CG46491 | DRSC06566 | 69474 | 1.07e5 | 1.38e6 | 1.38e6 | inactive |
| Vha26 | DRSC12371 | 19760 | 30580 | 2.83e5 | 2.96e5 | inactive |
| Vha26 | DRSC25503 | 4.84e5 | 4.36e5 | 1.67e6 | 7.01e5 | inactive |
| Vha26 | DRSC38973 | 9.98e5 | 6.02e5 | 1.51e6 | 1.11e6 | inactive |
| CG8067 | DRSC07065 | 9.79e5 | 1.07e6 | 1.08e6 | 1.04e6 | inactive |
| Ssk | DRSC10756 | 83790 | 71014 | 5.30e5 | 3.83e5 | inactive |
| CG44085 | DRSC02929 | 2.36e5 | 3.33e5 | 1.48e6 | 2.06e6 | inactive |
| CG44085 | DRSC23040 | 6.78e5 | 7.93e5 | 1.22e6 | 1.26e6 | inactive |
| CG5567 | DRSC10517 | 78804 | 57247 | 4.41e5 | 4.20e5 | inactive |
| CG4045 | DRSC18518 | 97616 | 1.14e5 | 1.03e6 | 7.61e5 | inactive |
| CG5861 | DRSC02907 | 2.02e5 | 1.46e5 | 2.32e6 | 1.95e6 | inactive |
| hlk | DRSC05021 | 2.19e5 | 2.28e5 | 1.32e6 | 1.17e6 | inactive |
| hlk | DRSC05022 | 2.22e5 | 2.30e5 | 1.85e6 | 2.09e6 | inactive |
| hlk | DRSC26150 | 3.34e5 | 1.81e5 | 7.66e5 | 4.95e5 | inactive |
| Vps28 | DRSC06168 | 8.20e5 | 9.11e5 | 1.44e6 | 1.34e6 | inactive |
| Tsp2A | DRSC18584 | 3.86e5 | 2.75e5 | 3.81e6 | 3.32e6 | inactive |
| UQCR-C2 | DRSC10405 | 1.74e5 | 1.16e5 | 1.75e6 | 1.37e6 | inactive |
| UQCR-C2 | DRSC28912 | 4.27e5 | 4.94e5 | 7.88e5 | 1.02e6 | inactive |
| CG5245 | DRSC15750 | 80160 | 60212 | 9.59e5 | 7.45e5 | inactive |
| CG5245 | DRSC29337 | 5.79e5 | 4.32e5 | 1.14e6 | 1.14e6 | inactive |
| Ir52b | DRSC06263 | 87581 | 86597 | 9.33e5 | 9.33e5 | inactive |
| lncRNA:CR32657 | DRSC19403 | 4.40e5 | 4.69e5 | 3.86e6 | 4.45e6 | inactive |
| lncRNA:CR32657 | DRSC25753 | 6.66e5 | 4.12e5 | 6.98e5 | 6.11e5 | inactive |

Reformatted: 6 of the entries above.
Gene,DRSC id,"firefly reporter light, replicate 1","firefly reporter light, replicate 2","Renilla control light, replicate 1","Renilla control light, replicate 2",activity call
sing,DRSC19530,6.01e5,6.49e5,2.89e6,2.91e6,inactive
Pepck2,DRSC06013,62817,88690,1.52e6,1.88e6,active
Pepck2,DRSC26167,3.02e5,2.59e5,8.34e5,6.87e5,inactive
mRpL24,DRSC03113,6.44e5,8.59e5,1.33e6,1.80e6,inactive
CG13445,DRSC09992,4.18e5,3.22e5,1.97e6,2.01e6,inactive
CG13445,DRSC25076,9.61e5,7.65e5,1.17e6,1.16e6,inactive

The listing continues.
| Gene | DRSC id | firefly reporter light, replicate 1 | firefly reporter light, replicate 2 | Renilla control light, replicate 1 | Renilla control light, replicate 2 | activity call |
| --- | --- | --- | --- | --- | --- | --- |
| CG5953 | DRSC01546 | 1.59e5 | 2.64e5 | 7.25e5 | 6.03e5 | inactive |
| CG5953 | DRSC28725 | 4.86e5 | 3.47e5 | 1.13e6 | 1.16e6 | inactive |
| Dek | DRSC07418 | 3.80e5 | 3.51e5 | 9.71e5 | 1.01e6 | inactive |
| Dek | DRSC23928 | 5.75e5 | 2.98e5 | 5.05e5 | 4.23e5 | inactive |
| RpL32 | DRSC16835 | 51313 | 66452 | 8.57e5 | 1.23e6 | inactive |
| RpL32 | DRSC27164 | 1.52e5 | 1.55e5 | 3.89e5 | 4.17e5 | inactive |
| CG3609 | DRSC00620 | 1.27e5 | 1.19e5 | 7.18e5 | 6.20e5 | inactive |
| CG3609 | DRSC29005 | 4.81e5 | 4.10e5 | 1.17e6 | 7.87e5 | inactive |
| CG8671 | DRSC03102 | 1.17e5 | 1.07e5 | 7.25e5 | 6.09e5 | inactive |
| CG8671 | DRSC03103 | 1.02e5 | 81129 | 9.31e5 | 5.18e5 | inactive |
| CG8671 | DRSC27179 | 3.96e5 | 2.99e5 | 6.79e5 | 6.12e5 | inactive |
| CG5013 | DRSC15695 | 1.11e5 | 98078 | 1.64e6 | 1.77e6 | inactive |
| ZnT35C | DRSC01959 | 1.03e5 | 1.10e5 | 1.32e6 | 1.32e6 | inactive |
| CG9021 | DRSC03128 | 7.68e5 | 7.59e5 | 1.02e6 | 8.11e5 | inactive |
| CG17249 | DRSC08517 | 9.83e5 | 6.10e5 | 2.26e6 | 1.07e6 | inactive |
| armi | DRSC08193 | 1.37e5 | 1.90e5 | 1.35e6 | 2.31e6 | inactive |
| CG30046 | DRSC06691 | 2.38e5 | 2.90e5 | 8.87e5 | 1.37e6 | inactive |
| Wnt4 | DRSC00976 | 84656 | 35202 | 2.53e5 | 3.08e5 | inactive |
| Wnt4 | DRSC03477 | 2.08e5 | 2.00e5 | 1.74e6 | 1.38e6 | inactive |
| GstO1 | DRSC10688 | 1.04e5 | 1.26e5 | 1.37e6 | 1.36e6 | inactive |
| GstO1 | DRSC26064 | 3.12e5 | 2.80e5 | 6.12e5 | 6.87e5 | inactive |
| Galphaf | DRSC11171 | 1.76e5 | 1.14e5 | 1.07e6 | 1.22e6 | inactive |
| CG32263 | DRSC22431 | 4.39e5 | 5.49e5 | 1.45e6 | 2.04e6 | inactive |
| CG32263 | DRSC29009 | 4.32e5 | 4.81e5 | 1.33e6 | 1.15e6 | inactive |
| su(w[a]) | DRSC18840 | 15713 | 23516 | 2.35e5 | 2.34e5 | active |
| su(w[a]) | DRSC29287 | 6.50e5 | 6.83e5 | 9.59e5 | 9.92e5 | inactive |
| LManI | DRSC02838 | 2.19e5 | 2.23e5 | 1.80e6 | 1.70e6 | inactive |
| LManI | DRSC24754 | 6.58e5 | 7.49e5 | 5.00e5 | 7.91e5 | inactive |
| LManI | DRSC39016 | 5.48e5 | 6.67e5 | 2.08e6 | 2.08e6 | inactive |
| RabX2 | DRSC18234 | 5.31e5 | 3.02e5 | 2.67e6 | 2.38e6 | inactive |
| not | DRSC11378 | 92474 | 89140 | 6.98e5 | 5.65e5 | inactive |
| Afti | DRSC16440 | 48056 | 36207 | 3.64e5 | 3.36e5 | inactive |
| Afti | DRSC29272 | 5.69e5 | 3.84e5 | 1.14e6 | 1.19e6 | inactive |
| Hel25E | DRSC03342 | 5.20e5 | 6.67e5 | 1.28e6 | 1.48e6 | inactive |
| Hel25E | DRSC28348 | 1.51e5 | 3.09e5 | 1.02e6 | 1.37e6 | active |
